Assay results as given in the supplement of paper PMC12889115.
Some of the results follow. These are raw signals, not scaled to a control.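 First-pass screen: polymyxin B was added at a level that permeabilizes the Salmonella outer membrane while sparing the inner membrane. DMSO wells, with and without polymyxin B, defined maximum growth. Because plates differed from one another, each plate's data were ranked separately and the compounds with the lowest OD600 were carried forward as hits.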

System: Salmonella enterica serovar Typhimurium SL1344
Assay: bacterial growth OD600 after 18 h with compound and polymyxin B; higher = more bacterial growth (less inhibition)
Details: 50 µM, Mueller-Hinton broth

Row | SMILES | bacterial growth OD600 (polymyxin B 1 µg/mL) | bacterial growth OD600 (polymyxin B 0.75 µg/mL)
1 | Cc1cc(C)n(-c2ccc(C(=O)N3CCCC(CCC(=O)NC4CC4)C3)cc2)n1 (stereo not given) | 0.717 | 
2 | CC(C)N(Cc1cnn(C)c1)C(=O)c1ccc(OC2CCN(C(=O)C3CC3)CC2)cc1 | 0.824 | 
3 | CN(Cc1nc2ccccc2[nH]1)C(=O)C1CCC(=O)N(CCc2cccc(F)c2)C1 (stereo not given) | 0.898 | 
4 | CC(=O)N1CCCN(C(=O)CC(c2cccc(Cl)c2)c2ccccc2O)CC1 (stereo not given) | 0.923 | 
5 | COc1ccccc1CNC(=O)c1c(OC)cc(=O)n2c1CCN(Cc1cccc(F)c1F)CC2 |  | 0.82
6 | CN(Cc1ccon1)CC1(O)CCCN(CC(C)(C)C)C1=O (stereo not given) | 1.01 | 
7 | COC(=O)CCC(=O)N1CCCC(C(=O)Nc2cccc(-c3ccc(F)cc3)c2)C1 (stereo not given) | 0.719 | 
8 | COc1ccc(Cl)cc1S(=O)(=O)N1CCOc2c(cc(-c3cnc4ccccc4c3)cc2OC)C1 |  | 0.779
9 | Cc1cc(C)n(CC(=O)NC2CCCc3nc(N(C)C)ncc32)n1 (stereo not given) |  | 0.858
10 | CCN1CCN(C(=O)c2ccc(N3CCC(NC(C)Cn4ccc5ccccc54)CC3)cc2)CC1 (stereo not given) |  | 0.965
11 | CC(=O)NC1CC(=O)N(Cc2cccc3ccccc23)C1 (stereo not given) | 0.942 | 
12 | C=CCC(=O)NCc1cccnc1Oc1ccccc1OC |  | 0.849
13 | COC(=O)c1cc(CNC(=O)CCc2ccc3c(c2)OCO3)cc(NC(=O)c2ccccc2OC)c1 |  | 0.813
14 | C=CCN1CC(C(=O)NCc2ccc3[nH]c(C)c(C)c3c2)CC1=O (stereo not given) | 0.898 | 
15 | CC(=O)N1CCC(NC2CCCc3c2cnn3-c2ccc(C)c(C)c2)CC1 (stereo not given) | 1.01 | 
16 | O=C(CCC1(Cc2ccc3ccccc3c2)CCC(=O)N1)NC1CCCc2ccccc21 (stereo not given) |  | 0.016
17 | COc1ccc(C(=O)CCC(=O)N2CCCC(c3nc(C)ncc3-c3cccc(C)c3)C2)cc1 (stereo not given) |  | 0.914
18 | COc1cc(CN2CCOC(Cc3ccccc3)C2)cc(OC)c1OC (stereo not given) |  | 0.839
19 | COc1ccc(NC(=O)N2CCCC(CNS(=O)(=O)c3cccs3)C2)c(C)c1 (stereo not given) | 0.862 | 
20 | CN1CCC(N2CCCC(CNC(=O)c3cccc4ccccc34)C2)CC1 (stereo not given) |  | 1

An excerpt of these results, with tabs:
Row	SMILES	bacterial growth OD600 (polymyxin B 1 µg/mL)	bacterial growth OD600 (polymyxin B 0.75 µg/mL)
15	CC(=O)N1CCC(NC2CCCc3c2cnn3-c2ccc(C)c(C)c2)CC1 (stereo not given)	1.01	
16	O=C(CCC1(Cc2ccc3ccccc3c2)CCC(=O)N1)NC1CCCc2ccccc21 (stereo not given)		0.016
17	COc1ccc(C(=O)CCC(=O)N2CCCC(c3nc(C)ncc3-c3cccc(C)c3)C2)cc1 (stereo not given)		0.914
18	COc1cc(CN2CCOC(Cc3ccccc3)C2)cc(OC)c1OC (stereo not given)		0.839
19	COc1ccc(NC(=O)N2CCCC(CNS(=O)(=O)c3cccs3)C2)c(C)c1 (stereo not given)	0.862	
